# Some of the results follow.
# B1: YghJ (Escherichia coli), E3PJ90 (protein)
# chain: MNKKFKYKKSLLAAILSATLLAGCDGGGSGSSSDTPPVDSGTGSLPEVKPDPTPNPEPTPEPTPDPEPTPEPIPDPEPTPEPEPEPVPTKTGYLTLGGSQRVTGATCNGESSDGFTFKPGEDVTCVAGNTTIATFNTQSEAARSLRAVEKVSFSLEDAQELAGSDDKKSNAVSLVTSSNSCPANTEQVCLTFSSVIESKRFDSLYKQIDLAPEEFKKLVNEEVENNAATDKAPSTHTSPVVPVTTPGTKPDLNASFVSANAEQFYQYQPTEIILSEGRLVDSQGYGVAGVNYYTNSGRGVTGENGEFSFSWGEAISFGIDTFELGSVRGNKSTIALTELGDEVRGANIDQLIHRYSTTGQNNTRVVPDDVRKVFAEYPNVINEIINLSLSNGATLGEGEQVVNLPNEFIEQFNTGQAKEIDTAICAKTDGCNEARWFSLTTRNVNDGQIQGVINKLWGVDTNYKSVSKFHVFHDSTNFYGSTGNARGQAVVNISNAAFPILMARNDKNYWLAFGEKRAWDKNELAYITEAPSIVRPENVTRETASFNLPFISLGQVGDGKLMVIGNPHYNSILRCPNGYSWNGGVNKDGQCTLNSDPDDMKNFMENVLRYLSNDRWLPDAKSSMTVGTNLETVYFKKHGQVLGNSAPFAFHKDFTGITVKPMTSYGNLNPDEVPLLILNGFEYVTQWGSDPYSIPLRADTSKPKLTQQDVTDLIAYMNKGGSVLIMENVMSNLKEESASGFVRLLDAAGLSMALNKSVVNNDPQGYPDRVRQRRSTPIWVYERYPAVDGKPPYTIDDTTKEVIWKYQQENKPDDKPKLEVASWQEEVEGKQVTQFAFIDEADHKTPESLAAAKQRILDAFPGLEVCKDSDYHYEVNCLEYRPGTDVPVTGGMYVPQYTQLDLSADTAKAMLQAADLGTNIQRLYQHELYFRTNGRQGERLNSVDLERLYQNMSVWLWNETKYRYEEGKEDELGFKTFTEFLNCYTNNAYVGTQCSAELKKSLIDNKMIYGEESSKAGMMNPSYPLNYMEKPLTRLMLGRSWWDLNIKVDVEKYPGVVNTNGETVTQNINLYSAPTKWFAGNMQSTGLWAPAQQEVSIESKSTVPVTVTVALADDLTGREKHEVSLNRPPRVTKTYDLKANDKVTFKVPYGGLIYIKGDSKEVQSADFTFTGVVKAPFYKDGKWQHDLNSPAPLGELESASFVYTTPKKNLNASNYTGGLEQFANDLDTFASSMNDFYGRDSEDGKHRMFTYKNLPGHKHRFANDVQISIGDAHSGYPVMNSSFSPNSTTLPTTPLNDWLIWHEVGHNAAETPLTVPGATEVANNVLALYMQDRYLGKMNRVADDITVAPEYLEESNGQAWARGGAGDRLLMYAQLKEWAEKNFDIKKWYPDGTPLPEFYSEREGMKGWNLFQLMHRKARGDEVSNDKFGGKNYCAESNGNAADTLMLCASWVAQTDLSEFFKKWNPGANAYQLPGASEMSFEGGVSQSAYNTLASLDLPKPEQGPETINQVTEHKMSAE
# Experiments:
# Experiment in all cases: glycan array binding signal (z-score within array); higher = stronger binding
# Conditions in all cases: glycan notation: IUPAC condensed, linker removed
# [1] = target: GlcNAc(b1-2)Gal(b1-3)GalNAc
# Procedure, shortened: (§1)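 Negative Z-scores can be read as non-binding. The Z-score is calculated within each array and then averaged across arrays of one protein sequence at different concentrations or buffers and across linkers. Arrays, 3228 in all, were curated from the Consortium for Functional Glycomics database and kept only where the protein sequence was available.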
# [2] = target: GlcNAc(b1-2)Man(a1-3)[GlcNAc(b1-2)Man(a1-6)]Man(b1-4)GlcNAc(b1-4)GlcNAc
# Procedure, shortened: as §1
# [3] = target: GlcNAc(b1-2)Man(a1-3)[GlcNAc(b1-2)Man(a1-6)]Man(b1-4)GlcNAc(b1-4)[Fuc(a1-6)]GlcNAc
# Procedure, shortened: as §1
# [4] = target: GlcNAc(b1-2)Man(a1-3)[GlcNAc(b1-4)][GlcNAc(b1-2)Man(a1-6)]Man(b1-4)GlcNAc(b1-4)GlcNAc
# Procedure, shortened: as §1
# [5] = target: GlcNAc(b1-2)Man(a1-3)[GlcNAc(b1-4)][GlcNAc(b1-2)Man(a1-6)]Man(b1-4)GlcNAc(b1-4)[Fuc(a1-6)]GlcNAc
# Procedure, shortened: as §1
# [6] = target: GlcNAc(b1-2)[GlcNAc(b1-4)]Man(a1-3)[GlcNAc(b1-2)Man(a1-6)]Man(b1-4)GlcNAc(b1-4)GlcNAc
# Procedure, shortened: as §1
# [7] = target: GlcNAc(b1-2)[GlcNAc(b1-4)]Man(a1-3)[GlcNAc(b1-4)][GlcNAc(b1-2)Man(a1-6)]Man(b1-4)GlcNAc(b1-4)GlcNAc
# Procedure, shortened: as §1
# [8] = target: GlcNAc(b1-2)[GlcNAc(b1-4)]Man(a1-3)[GlcNAc(b1-4)][GlcNAc(b1-2)[GlcNAc(b1-6)]Man(a1-6)]Man(b1-4)GlcNAc(b1-4)GlcNAc
# Procedure, shortened: as §1
# [9] = target: GlcNAc(b1-2)[GlcNAc(b1-4)]Man(a1-3)[GlcNAc(b1-4)][GlcNAc(b1-2)[GlcNAc(b1-6)]Man(a1-6)]Man(b1-4)GlcNAc(b1-4)[Fuc(a1-6)]GlcNAc
# Procedure, shortened: as §1
# [10] = target: GlcNAc(b1-2)[GlcNAc(b1-6)]Man(a1-6)[GlcNAc(b1-2)Man(a1-3)]Man(b1-4)GlcNAc(b1-4)GlcNAc
# Procedure, shortened: as §1
# [11] = target: GlcNAc(b1-2)[GlcNAc(b1-6)]Man(a1-6)[GlcNAc(b1-2)Man(a1-3)]Man(b1-4)GlcNAc(b1-4)[Fuc(a1-6)]GlcNAc
# Procedure, shortened: as §1
# [12] = target: GlcNAc(b1-2)[GlcNAc(b1-6)]Man(a1-6)[GlcNAc(b1-4)][GlcNAc(b1-2)Man(a1-3)]Man(b1-4)GlcNAc(b1-4)GlcNAc
# Procedure, shortened: as §1
# GlcNAc(b1-3)Fuc = target: GlcNAc(b1-3)Fuc
# Procedure, shortened: as §1
# GlcNAc(b1-3)Gal = target: GlcNAc(b1-3)Gal
# Procedure, shortened: as §1
# [13] = target: GlcNAc(b1-3)Gal(b1-3)GalNAc
# Procedure, shortened: as §1
# GlcNAc(b1-3)Gal(b1-4)Glc = target: GlcNAc(b1-3)Gal(b1-4)Glc
# Procedure, shortened: as §1
# [14] = target: GlcNAc(b1-3)Gal(b1-4)GlcNAc
# Procedure, shortened: as §1
# [15] = target: GlcNAc(b1-3)Gal(b1-4)GlcNAc(b1-2)Man(a1-3)[GlcNAc(b1-3)Gal(b1-4)GlcNAc(b1-2)Man(a1-6)]Man(b1-4)GlcNAc(b1-4)GlcNAc
# Procedure, shortened: as §1
# [16] = target: GlcNAc(b1-3)Gal(b1-4)GlcNAc(b1-2)Man(a1-3)[GlcNAc(b1-3)Gal(b1-4)GlcNAc(b1-2)Man(a1-6)]Man(b1-4)GlcNAc(b1-4)[Fuc(a1-6)]GlcNAc
# Procedure, shortened: as §1
# [17] = target: GlcNAc(b1-3)Gal(b1-4)GlcNAc(b1-2)[GlcNAc(b1-3)Gal(b1-4)GlcNAc(b1-6)]Man(a1-6)[GlcNAc(b1-3)Gal(b1-4)GlcNAc(b1-2)Man(a1-3)]Man(b1-4)GlcNAc(b1-4)GlcNAc
# Procedure, shortened: as §1
# [18] = target: GlcNAc(b1-3)Gal(b1-4)GlcNAc(b1-3)Gal(b1-4)GlcNAc
# Procedure, shortened: as §1
# [19] = target: GlcNAc(b1-3)Gal(b1-4)GlcNAc(b1-3)Gal(b1-4)GlcNAc(b1-2)Man(a1-3)[GlcNAc(b1-3)Gal(b1-4)GlcNAc(b1-3)Gal(b1-4)GlcNAc(b1-2)Man(a1-6)]Man(b1-4)GlcNAc(b1-4)GlcNAc
# Procedure, shortened: as §1
# [20] = target: GlcNAc(b1-3)Gal(b1-4)GlcNAc(b1-3)Gal(b1-4)GlcNAc(b1-2)Man(a1-3)[GlcNAc(b1-3)Gal(b1-4)GlcNAc(b1-3)Gal(b1-4)GlcNAc(b1-2)Man(a1-6)]Man(b1-4)GlcNAc(b1-4)[Fuc(a1-6)]GlcNAc
# Procedure, shortened: as §1
# [21] = target: GlcNAc(b1-3)Gal(b1-4)GlcNAc(b1-3)Gal(b1-4)GlcNAc(b1-2)[GlcNAc(b1-3)Gal(b1-4)GlcNAc(b1-3)Gal(b1-4)GlcNAc(b1-6)]Man(a1-6)[GlcNAc(b1-3)Gal(b1-4)GlcNAc(b1-3)Gal(b1-4)GlcNAc(b1-2)Man(a1-3)]Man(b1-4)GlcNAc(b1-4)[Fuc(a1-6)]GlcNAc
# Procedure, shortened: as §1
# [22] = target: GlcNAc(b1-3)Gal(b1-4)GlcNAc(b1-3)Gal(b1-4)GlcNAc(b1-3)Gal(b1-4)GlcNAc(b1-2)Man(a1-3)[GlcNAc(b1-3)Gal(b1-4)GlcNAc(b1-3)Gal(b1-4)GlcNAc(b1-3)Gal(b1-4)GlcNAc(b1-2)Man(a1-6)]Man(b1-4)GlcNAc(b1-4)GlcNAc
# Procedure, shortened: as §1
# [23] = target: GlcNAc(b1-3)Gal(b1-4)GlcNAc(b1-3)Gal(b1-4)GlcNAc(b1-3)Gal(b1-4)GlcNAc(b1-2)Man(a1-3)[GlcNAc(b1-3)Gal(b1-4)GlcNAc(b1-3)Gal(b1-4)GlcNAc(b1-3)Gal(b1-4)GlcNAc(b1-2)Man(a1-6)]Man(b1-4)GlcNAc(b1-4)[Fuc(a1-6)]GlcNAc
# Procedure, shortened: as §1
# [24] = target: GlcNAc(b1-3)Gal(b1-4)GlcNAc(b1-3)Gal(b1-4)GlcNAc(b1-3)Gal(b1-4)GlcNAc(b1-2)[GlcNAc(b1-3)Gal(b1-4)GlcNAc(b1-3)Gal(b1-4)GlcNAc(b1-3)Gal(b1-4)GlcNAc(b1-6)]Man(a1-6)[GlcNAc(b1-3)Gal(b1-4)GlcNAc(b1-3)Gal(b1-4)GlcNAc(b1-3)Gal(b1-4)GlcNAc(b1-2)Man(a1-3)]Man(b1-4)GlcNAc(b1-4)[Fuc(a1-6)]GlcNAc
# Procedure, shortened: as §1
# [25] = target: GlcNAc(b1-3)Gal(b1-4)GlcNAc(b1-3)Gal(b1-4)GlcNAc(b1-3)Gal(b1-4)GlcNAc(b1-3)Gal(b1-4)GlcNAc(b1-2)Man(a1-3)[GlcNAc(b1-3)Gal(b1-4)GlcNAc(b1-3)Gal(b1-4)GlcNAc(b1-3)Gal(b1-4)GlcNAc(b1-3)Gal(b1-4)GlcNAc(b1-2)Man(a1-6)]Man(b1-4)GlcNAc(b1-4)GlcNAc
# Procedure, shortened: as §1
# [26] = target: GlcNAc(b1-3)Gal(b1-4)GlcNAc(b1-3)Gal(b1-4)GlcNAc(b1-3)Gal(b1-4)GlcNAc(b1-3)Gal(b1-4)GlcNAc(b1-2)Man(a1-3)[GlcNAc(b1-3)Gal(b1-4)GlcNAc(b1-3)Gal(b1-4)GlcNAc(b1-3)Gal(b1-4)GlcNAc(b1-3)Gal(b1-4)GlcNAc(b1-2)Man(a1-6)]Man(b1-4)GlcNAc(b1-4)[Fuc(a1-6)]GlcNAc
# Procedure, shortened: as §1
# [27] = target: GlcNAc(b1-3)Gal(b1-4)GlcNAc(b1-3)Gal(b1-4)GlcNAc(b1-3)Gal(b1-4)GlcNAc(b1-3)Gal(b1-4)GlcNAc(b1-2)[GlcNAc(b1-3)Gal(b1-4)GlcNAc(b1-3)Gal(b1-4)GlcNAc(b1-3)Gal(b1-4)GlcNAc(b1-3)Gal(b1-4)GlcNAc(b1-6)]Man(a1-6)[GlcNAc(b1-3)Gal(b1-4)GlcNAc(b1-3)Gal(b1-4)GlcNAc(b1-3)Gal(b1-4)GlcNAc(b1-3)Gal(b1-4)GlcNAc(b1-2)Man(a1-3)]Man(b1-4)GlcNAc(b1-4)[Fuc(a1-6)]GlcNAc
# Procedure, shortened: as §1
binder,measurement,setting,value
B1,glycan array binding signal (z-score),[1],-0.442
same,glycan array binding signal (z-score),[2],0.16
same,glycan array binding signal (z-score),[3],-0.329
same,glycan array binding signal (z-score),[4],0.504
same,glycan array binding signal (z-score),[5],0.724
same,glycan array binding signal (z-score),[6],-1.8
same,glycan array binding signal (z-score),[7],-1.65
same,glycan array binding signal (z-score),[8],-0.048
same,glycan array binding signal (z-score),[9],-1.05
same,glycan array binding signal (z-score),[10],0.097
same,glycan array binding signal (z-score),[11],0.342
same,glycan array binding signal (z-score),[12],1.29
same,glycan array binding signal (z-score),GlcNAc(b1-3)Fuc,-0.862
same,glycan array binding signal (z-score),GlcNAc(b1-3)Gal,-1.51
same,glycan array binding signal (z-score),[13],-0.197
same,glycan array binding signal (z-score),GlcNAc(b1-3)Gal(b1-4)Glc,-0.645
same,glycan array binding signal (z-score),[14],-0.102
same,glycan array binding signal (z-score),[15],-0.98
same,glycan array binding signal (z-score),[16],-1.21
same,glycan array binding signal (z-score),[17],-1.19
same,glycan array binding signal (z-score),[18],-1.44
same,glycan array binding signal (z-score),[19],0.4
same,glycan array binding signal (z-score),[20],0.066
same,glycan array binding signal (z-score),[21],1.17
same,glycan array binding signal (z-score),[22],-0.344
same,glycan array binding signal (z-score),[23],0.253
same,glycan array binding signal (z-score),[24],-0.384
same,glycan array binding signal (z-score),[25],4.26
same,glycan array binding signal (z-score),[26],0.124
same,glycan array binding signal (z-score),[27],0.112

# Random excerpt: 2 records from the list, in no set order.
binder,measurement,setting,value
B1,glycan array binding signal (z-score),[26],0.124
same,glycan array binding signal (z-score),[27],0.112

# Source: the supplement of paper PMC8728848
